Test results: PMC6026704
Results are given in words; binding and its absence hold for the method and conditions named. Binding can be weak; no strength is given. Where a sequence is shown, tags or fusion partners need not be part of it. For some of these results: In cells and extracts the contact can be indirect.

T1: FL-SIKE-6xHis (pET26b, C-terminal 6xHis tag) (human) (UniProt Q9BRV8)
T1 sequence: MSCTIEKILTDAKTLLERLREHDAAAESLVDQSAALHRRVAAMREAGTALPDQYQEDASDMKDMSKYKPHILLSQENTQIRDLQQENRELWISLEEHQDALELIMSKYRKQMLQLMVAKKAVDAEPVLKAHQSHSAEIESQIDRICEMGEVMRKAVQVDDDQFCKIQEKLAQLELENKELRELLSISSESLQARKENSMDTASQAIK


Experiments:
[1] = target: T1, FL-SIKE-6xHis (pET26b, C-terminal 6xHis tag) (human); test: pull-down; in vitro precipitation (IVP): 6xHis-tagged SIKE (8 uM) pre-incubated with the partner (4-11.2 uM; molar ratios 1:0.5, 1:1, 1:1.4) in 50 mM NaH2PO4 pH 8, 0.3 M NaCl at 4 °C, precipitated with Ni-NTA agarose at RT, washed with 50 mM imidazole, eluted with 250 mM imidazole; SDS-PAGE of bound and unbound samples; both purified
[2] = target: mCherry tubulin (pmCherry-α-tubulin); test: co-IP; reciprocal immunoprecipitation: EGFP- or mCherry-tagged cytoskeletal protein precipitated from co-transfected HEK293 lysate (500 ug protein) with anti-GFP or anti-mCherry antibody cross-linked to protein G Dynabeads, overnight at 4 °C, washed with TBS/0.1% Tween-20; blot for FLAG or HA (SIKE); basal or dsRNA (50 ug/mL pI:pC, 12 h) stimulated cells
[3] = target: EGFP-α-actinin (pEGFP-α-actinin); test: as above

Row | Molecule | binding [1] | binding [2] | binding [3]
1 | α-actinin (Cytoskeleton, Inc.) | binds |  | 
2 | Suppressor of IKKepsilon (SIKE), WT, FLAG-tagged (pCMVFLAG5a SIKE 6xHis) (protein, UniProt Q9BRV8-1 1-207) MSCTIEKILTDAKTLLERLREHDAAAESLVDQSAALHRRVAAMREAGTALPDQYQEDASDMKDMSKYKPHILLSQENTQIRDLQQENRELWISLEEHQDALELIMSKYRKQMLQLMVAKKAVDAEPVLKAHQSHSAEIESQIDRICEMGEVMRKAVQVDDDQFCKIQEKLAQLELENKELRELLSISSESLQARKENSMDTASQAIK |  | binds | binds
3 | phosphomimetic SIKE (pCMVHA-SIKE S6E (S133, 185, 187, 188, 190, 198E)) (protein, UniProt Q9BRV8-1 1-207) MSCTIEKILTDAKTLLERLREHDAAAESLVDQSAALHRRVAAMREAGTALPDQYQEDASDMKDMSKYKPHILLSQENTQIRDLQQENRELWISLEEHQDALELIMSKYRKQMLQLMVAKKAVDAEPVLKAHQEHSAEIESQIDRICEMGEVMRKAVQVDDDQFCKIQEKLAQLELENKELRELLEIEEEELQARKENEMDTASQAIK |  | binds | 
